Assay results reported in article PMC10766610, “DCAF1-based PROTACs with activity against clinically validated targets overcoming intrinsic- and acquired-degrader resistance” (Nature Communications, 2024).
Results are given in words; binding and its absence hold for the method and conditions named. In cells and extracts the contact can be indirect. These calls come from enrichment with a bait or labelling near it, and not all partners need be listed.

Molecular target: DCAF1 (human (endogenous in HEK293T)), Q9Y4B6
Assay: affinity purification with mass spectrometry; HEK293T lysate (5 mg/mL) on resin carrying the DCAF1 ligand (16), 4 °C, 4 h, with or without preincubation with 100 µM free (16); TMT quantitative proteomics, two replicates
Conditions: remark: other sources report otherwise

binding: binds
B1: CUL4B, Q13620 1-913 (protein)
chain: MMSQSSGSGDGNDDEATTSKDGGFSSPSPSAAAAAQEVRSATDGNTSTTPPTSAKKRKLNSSSSSSSNSSNEREDFDSTSSSSSTPPLQPRDSASPSTSSFCLGVSVAASSHVPIQKKLRFEDTLEFVGFDAKMAEESSSSSSSSSPTAATSQQQQLKNKSILISSVASVHHANGLAKSSTTVSSFANSKPGSAKKLVIKNFKDKPKLPENYTDETWQKLKEAVEAIQNSTSIKYNLEELYQAVENLCSYKISANLYKQLRQICEDHIKAQIHQFREDSLDSVLFLKKIDRCWQNHCRQMIMIRSIFLFLDRTYVLQNSMLPSIWDMGLELFRAHIISDQKVQNKTIDGILLLIERERNGEAIDRSLLRSLLSMLSDLQIYQDSFEQRFLEETNRLYAAEGQKLMQEREVPEYLHHVNKRLEEEADRLITYLDQTTQKSLIATVEKQLLGEHLTAILQKGLNNLLDENRIQDLSLLYQLFSRVRGGVQVLLQQWIEYIKAFGSTIVINPEKDKTMVQELLDFKDKVDHIIDICFLKNEKFINAMKEAFETFINKRPNKPAELIAKYVDSKLRAGNKEATDEELEKMLDKIMIIFRFIYGKDVFEAFYKKDLAKRLLVGKSASVDAEKSMLSKLKHECGAAFTSKLEGMFKDMELSKDIMIQFKQYMQNQNVPGNIELTVNILTMGYWPTYVPMEVHLPPEMVKLQEIFKTFYLGKHSGRKLQWQSTLGHCVLKAEFKEGKKELQVSLFQTLVLLMFNEGEEFSLEEIKQATGIEDGELRRTLQSLACGKARVLAKNPKGKDIEDGDKFICNDDFKHKLFRIKINQIQMKETVEEQASTTERVFQDRQYQIDAAIVRIMKMRKTLSHNLLVSEVYNQLKFPVKPADLKKRIESLIDRDYMERDKENPNQYNYIA
